PubChem BioAssay AID1159584 – Peter MacCallum Cancer Centre | 2016

- Purpose: 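Genes whose loss is lethal only together with E-cadherin loss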 (primary screen)
- Cell system: human MCF10A breast epithelial cells, parental and CDH1-null
- Reagents: siRNA against human genes
- Detection: 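Cell viability by CellTiter-Glo ATP luminescence, each line scaled to the mean of mock wells across plates, then CDH1-null over parental ratio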
- Direction: CDH1-null / parental viability ratio: higher = CDH1-null cells survive relatively better than parental; CDH1-null viability vs mock: higher = more viable CDH1-null cells; parental viability vs mock: higher = more viable parental cells
The whole screen tested about 18,000 reagents; shown is a random part of them. The record does not give: the amount of reagent, the time to read-out.

no.	target gene	CDH1-null / parental viability ratio	CDH1-null viability vs mock (fraction of mock)	parental viability vs mock (fraction of mock)
1	FKTN (GeneID 2218)	0.98	0.94	0.96
2	PKD1L3 (GeneID 342372)	1.3	0.91	0.7
3	MAP4K2 (GeneID 5871)	1	0.88	0.88
4	TOMM40L (GeneID 84134)	1.11	0.52	0.47
5	ASTL (GeneID 431705)	0.96	0.88	0.92
6	GIN1 (GeneID 54826)	0.78	0.42	0.54
7	HERC5 (GeneID 51191)	0.99	0.8	0.81
8	CRIPTO (GeneID 6997)	1.03	0.62	0.6
9	DBT (GeneID 1629)	0.95	0.84	0.88
10	ERVW-1 (GeneID 30816)	0.87	0.86	0.99
11	IRS2 (GeneID 8660)	0.51	0.36	0.7
12	TXNL4A (GeneID 10907)	1.06	0.72	0.68
13	SMIM19 (GeneID 114926)	1.16	0.85	0.73
14	OPHN1 (GeneID 4983)	0.99	0.68	0.69
15	XRCC6 (GeneID 2547)	1.03	0.64	0.62
16	ATP1A3 (GeneID 478)	1.22	0.96	0.79
17	HTR1F (GeneID 3355)	0.89	0.96	1.08
18	PRAME (GeneID 23532)	0.86	0.76	0.88
19	PILRA (GeneID 29992)	0.95	0.84	0.88
20	FOSB (GeneID 2354)	1.33	1.2	0.9
21	CEP44 (GeneID 80817)	1.06	1	0.94
22	CIB4 (GeneID 130106)	1.1	0.97	0.88

Next part, starting with the last 6 of the part before.
no.	target gene	CDH1-null / parental viability ratio	CDH1-null viability vs mock (fraction of mock)	parental viability vs mock (fraction of mock)
17	HTR1F (GeneID 3355)	0.89	0.96	1.08
18	PRAME (GeneID 23532)	0.86	0.76	0.88
19	PILRA (GeneID 29992)	0.95	0.84	0.88
20	FOSB (GeneID 2354)	1.33	1.2	0.9
21	CEP44 (GeneID 80817)	1.06	1	0.94
22	CIB4 (GeneID 130106)	1.1	0.97	0.88
23	ZACN (GeneID 353174)	1.14	0.95	0.83
24	TENT5C (GeneID 54855)	1.11	0.69	0.62
25	SPINK14 (GeneID 408187)	1.43	0.9	0.63
26	TCEAL8 (GeneID 90843)	0.84	0.64	0.76
27	THADA (GeneID 63892)	1.11	1.13	1.02
28	RANBP1 (GeneID 5902)	0.88	0.8	0.91
29	ERI2 (GeneID 112479)	0.86	0.84	0.98
30	TRIM45 (GeneID 80263)	0.89	0.87	0.98
31	DNAJC11 (GeneID 55735)	0.66	0.38	0.58
32	FAAP20 (GeneID 199990)	0.97	0.66	0.68
33	PSMC1 (GeneID 5700)	0.94	0.6	0.64
34	RNF181 (GeneID 51255)	0.83	0.85	1.02
35	CCDC14 (GeneID 64770)	0.8	0.82	1.02
36	GLI2 (GeneID 2736)	0.94	0.92	0.98
37	SCGB1A1 (GeneID 7356)	0.91	0.64	0.7
38	HSPA14 (GeneID 51182)	0.74	0.68	0.92
39	TEAD1 (GeneID 7003)	1.05	0.64	0.61
40	ORAI3 (GeneID 93129)	1.32	0.87	0.66
41	PRSS45P (GeneID 377047)	0.82	0.84	1.03
42	NOX3 (GeneID 50508)	0.99	0.86	0.87
43	HMG20B (GeneID 10362)	0.91	0.8	0.88
44	TANC1 (GeneID 85461)	0.85	0.76	0.89
45	CRACDL (GeneID 343990)	0.9	0.72	0.8
46	CLNS1A (GeneID 1207)	1.38	0.88	0.64
